The numbers were not newly measured in patent publication US20090035370A1, “DOSAGE FORM AND METHOD OF USE” (DRUGTECH CORPORATION, priority 2007, published 2009), which cites them from elsewhere.

Each structure is given as a SMILES string.

The target of one data set is adrenergic a 2 receptor. The conditions noted are these: adrenergic a 2 receptor in the brain.
Another data set addresses adrenergic a 1 receptor. The settings on record: adrenergic a 1 receptor in the brain.

Take `OCCOCCN1CCN(C2=Nc3ccccc3Sc3ccccc32)CC1` [Quetiapine]: the IC50 (as a rule, the concentration needed to halve the response being measured) on adrenergic a 2 receptor was 271 nM; on adrenergic a 1 receptor it was 94 nM.
